# Data reported in PubChem BioAssay AID222 (DTP/NCI, 2004).
# The list does not hold the whole screen: it covers a few groups of compounds. Other doses and runs of a compound may be missing. T/C is the treated group as % of the vehicle group. Where survival is the endpoint, this PubChem deposit counts one and a half times the control or more as active, and values a quarter to a half above the control carry no call in these data; other NCI protocols may use other cut-offs. Schedules are NCI's codes, taken here to give the interval after Q, in days (D) or hours (H), and the number of doses after X. Some entries show no survivor count and are marked so; the dose need not have been tolerated.
# System: C57BL/6 mice, intracerebral ependymoblastoma, median survival T/C
# Assay: NCI In Vivo Anticancer Drug Screen. Data for tumor model Ependymoblastoma (intracerebral) in C57BL/6 mice
# Details: T/C endpoint: median survival time; dose: 2.0 mg/kg/injection; schedule: Q01DX005 (ip); vehicle: saline; higher T/C = longer survival
# Experimental: The antitumor activity of compounds was measured in mice bearing transplantable tumors. Survival or tumor size were measured and the results are expressed as the measurement made in the treated group (T) divided by the measurement made in the vehicle treated control group (C). The tumor model used in this assay is Ependymoblastoma (intracerebral) in C57BL/6 mice
structure (smiles),measurement,value
CC(=O)OCC12CCC(C)=CC1OC1C(O)C(OC(C)=O)C2(C)C12CO2 (stereo unspecified),T/C,106 % of control [survivor count not shown]
